This note sets out measurements from publication PMC8321694.

Chains of the proteins cited; added tags and fusions are not shown.
UniProt P47110: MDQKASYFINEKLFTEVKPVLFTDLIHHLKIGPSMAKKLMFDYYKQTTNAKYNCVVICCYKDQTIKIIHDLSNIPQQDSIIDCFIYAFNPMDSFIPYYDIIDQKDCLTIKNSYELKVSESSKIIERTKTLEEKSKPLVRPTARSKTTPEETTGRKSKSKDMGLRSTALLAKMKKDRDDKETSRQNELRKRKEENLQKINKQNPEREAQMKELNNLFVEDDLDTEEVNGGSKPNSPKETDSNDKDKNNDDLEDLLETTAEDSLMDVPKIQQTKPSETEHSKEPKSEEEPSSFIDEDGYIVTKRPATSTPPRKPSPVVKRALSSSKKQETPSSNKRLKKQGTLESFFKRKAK

Positions count from the first letter of the chain named. Names and notes keep the numbering of the source. These are yes or no findings as the source states them, for the method shown. For part of these data: Binding seen in cells or lysates may run through a third protein. Some entries that bind do so weakly or less than the wild type. For part of these data: Sequences can lack the tags named with a protein.

Assay [1] has as its target T1, LexA-Pol31 (wild-type, full length) (budding yeast) (UniProt P46957).
T1 sequence: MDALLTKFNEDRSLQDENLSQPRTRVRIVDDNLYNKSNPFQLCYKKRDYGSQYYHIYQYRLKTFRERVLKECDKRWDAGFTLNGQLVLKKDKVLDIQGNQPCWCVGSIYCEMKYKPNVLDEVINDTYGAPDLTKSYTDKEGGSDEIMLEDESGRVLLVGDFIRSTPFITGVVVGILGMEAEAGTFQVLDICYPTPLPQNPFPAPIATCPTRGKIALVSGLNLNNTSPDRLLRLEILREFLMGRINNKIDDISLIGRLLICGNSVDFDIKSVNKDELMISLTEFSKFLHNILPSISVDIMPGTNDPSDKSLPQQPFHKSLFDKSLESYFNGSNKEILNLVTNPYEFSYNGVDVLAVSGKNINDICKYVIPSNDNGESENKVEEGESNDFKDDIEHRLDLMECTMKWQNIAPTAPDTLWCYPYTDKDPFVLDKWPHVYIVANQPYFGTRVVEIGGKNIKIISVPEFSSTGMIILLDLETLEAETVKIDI
The experiment in a line: two-hybrid; LexA bait (pGAL-LexA) and B42 prey (pJG4-7), lacZ reporter pSH18-34; 2% galactose for 6 h; quantitative liquid β-galactosidase assay of cell extracts; pol32Δ strain GA-6292 (no endogenous Pol32).

Assay [2] concerns the target T2, LexA-Pol31-T415A (budding yeast) (UniProt P46957).
T2 sequence: T1 sequence with T415A
The assay is described as above.

For assay [3], the target named is T3, LexA-Pol31-W417A (budding yeast) (UniProt P46957).
T3 sequence: T1 sequence with W417A
The assay is described as above.

Assay [4] concerns the target T1, LexA-Pol31 (wild-type, full length) (budding yeast). Briefly: two-hybrid; LexA bait (pGAL-LexA) and B42 prey (pJG4-7), lacZ reporter pSH18-34; 2% galactose for 6 h; quantitative liquid β-galactosidase assay of cell extracts; wild-type strain GA-1981 (endogenous Pol32 present).
Assay [5] addresses T2, LexA-Pol31-T415A (budding yeast). The description is as above.
In assay [6] the target is T3, LexA-Pol31-W417A (budding yeast). The assay is described as above.
The target of assay [7] is T1, LexA-Pol31 (wild-type, full length) (budding yeast). The experiment in a line: two-hybrid; LexA bait (pGAL-LexA) and B42 prey (pJG4-7), lacZ reporter pSH18-34; 2% galactose for 6 h; quantitative liquid β-galactosidase assay of cell extracts; pol32Δ strain GA-6292 (no endogenous Pol32). This is another data set of the same source.
Assay [8] addresses T3, LexA-Pol31-W417A (budding yeast). Described as above. This is another data set of the same source.
In assay [9] the target is T4, MBP-Pol3-CTD, CysA + CysB (Pol3 991-1097) (budding yeast) (UniProt P15436).
T4 sequence: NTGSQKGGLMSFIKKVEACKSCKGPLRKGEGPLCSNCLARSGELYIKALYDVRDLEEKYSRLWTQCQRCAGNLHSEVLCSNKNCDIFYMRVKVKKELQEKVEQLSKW
The experiment in a line: pull-down; E. coli-expressed MBP-Pol3-CTD on Amylose beads; whole yeast cell extracts (wild-type or pol32Δ cells grown at 30°C or 16°C) with over-expressed HA- or LexA-Pol31 derivatives; 1.5 h at 4°C; 50 mM Hepes pH 7.5, 20 mM NaCl, 1 mM EDTA, 0.1% Triton X-100; Western blot; only the target purified. (A western blot detects proteins with antibodies after separation by electrophoresis.)

“Pol32 N terminus (aa 1–350), two-hybrid prey (from UniProt P47110 1-350) (domain or fragment)”: the binding entry in [1], in assay [2], in [3], in [4], in [5] and in assay [6] was “binds” each time.

B1: Pol3 C terminus (991-1097) bearing the paired CysA and CysB domains, two-hybrid prey (domain or fragment, UniProt P15436 991-1097)
chain: T4 sequence
For the molecule B1, the binding result in assay [7], in [8], in [4] and in [6] was “binds” each time.

B2: HA-Pol31 (wild-type, full-length HA-tagged Pol31) (protein, UniProt P46957 1-487)
chain: T1 sequence
Take B2: in assay [9], the binding result is given as “binds”.

B3: LexA-Pol31 (wild-type, full length) (protein, UniProt P46957 1-487)
chain: T1 sequence
As to B3, in assay [9], the binding result is given as “binds”.

B4: HA-Pol31-W417A (full length HA-tagged Pol31-W417) (protein, UniProt P46957 1-487)
chain: T1 sequence with W417A
As for B4, the binding entry in assay [9] is “binds”.

B5: LexA-Pol31-W417A (protein, UniProt P46957 1-487)
chain: T1 sequence with W417A
With B5, in assay [9], the binding entry is given as “binds”.

B6: Pol3 CysB domain (1032-1097), two-hybrid prey (domain or fragment, UniProt P15436 1032-1097)
chain: GELYIKALYDVRDLEEKYSRLWTQCQRCAGNLHSEVLCSNKNCDIFYMRVKVKKELQEKVEQLSKW
B6: the binding result in assay [7], in assay [8], in assay [4] and in assay [6] was “binds” throughout.
